Patent US6139538A, “Iontophoretic agent delivery to the female reproductive tract” (Iotek, Inc., priority 1997, dated 2000)
Several values for one entry are separate records, joined by “and”; a condition that tells them apart may be missing. Equal entries are not always repeated. Where two headings read alike, the source gives them in different places.

How the values were obtained:
[1] = in vitro; conditions: pig, uterine wall
[2] = 20 minutes

CCN(CC)CC(=O)Nc1c(C)cccc1C [lidocaine]
concentration at 20 min ([1]; average of lidocaine/g of tissue, first experiment, active delivery, average of three trials): 4.47e+06 ng/g
concentration at 20 min ([1]; average of lidocaine/g of tissue, first experiment, passive delivery, average of three trials): 900000 ng/g
concentration at 20 min ([1]; average of lidocaine/g of tissue, second experiment, active delivery, average of three trials): 1.02e+07 ng/g
concentration at 20 min ([1]; average of lidocaine/g of tissue, second experiment, passive delivery, average of three trials): 3.51e+06 ng/g
concentration at 20 min ([1]; μg/g of tissue, Experiment #1, active (A1, A2, A3): 4% lidocaine solution, 1 mA, 20 minutes): 5.05e+06 ng/g
concentration at 20 min ([1]; μg/g of tissue, Experiment #1, passive (P1, P2, P3): 4% lidocaine solution, no current, 20 minutes): 848000 ng/g
concentration at 20 min ([1]; μg/g of tissue, Experiment #2, active (A1, A2, A3): 4% lidocaine solution, 1 mA, 20 minutes): 1.06e+07 ng/g
μg/g of tissue ([2]; Experiment #1, active (A1, A2, A3): 4% lidocaine solution, 1 mA): 4667.1 µg/g and 3694.6 µg/g
μg/g of tissue ([2]; Experiment #1, passive (P1, P2, P3): 4% lidocaine solution, no current): 801.6 µg/g and 1051.5 µg/g
μg/g of tissue ([2]; Experiment #2, active (A1, A2, A3): 4% lidocaine solution, 1 mA): 9737.7 µg/g and 10318.0 µg/g
